Measured values as given in publication PMC6236959.
Results are given in words; binding and its absence hold for the method and conditions named. In cells and extracts the contact can be indirect. Some entries that bind do so weakly or less than the wild type.

Amino acid sequences for entries named in this document (tags omitted).
UniProt P54283: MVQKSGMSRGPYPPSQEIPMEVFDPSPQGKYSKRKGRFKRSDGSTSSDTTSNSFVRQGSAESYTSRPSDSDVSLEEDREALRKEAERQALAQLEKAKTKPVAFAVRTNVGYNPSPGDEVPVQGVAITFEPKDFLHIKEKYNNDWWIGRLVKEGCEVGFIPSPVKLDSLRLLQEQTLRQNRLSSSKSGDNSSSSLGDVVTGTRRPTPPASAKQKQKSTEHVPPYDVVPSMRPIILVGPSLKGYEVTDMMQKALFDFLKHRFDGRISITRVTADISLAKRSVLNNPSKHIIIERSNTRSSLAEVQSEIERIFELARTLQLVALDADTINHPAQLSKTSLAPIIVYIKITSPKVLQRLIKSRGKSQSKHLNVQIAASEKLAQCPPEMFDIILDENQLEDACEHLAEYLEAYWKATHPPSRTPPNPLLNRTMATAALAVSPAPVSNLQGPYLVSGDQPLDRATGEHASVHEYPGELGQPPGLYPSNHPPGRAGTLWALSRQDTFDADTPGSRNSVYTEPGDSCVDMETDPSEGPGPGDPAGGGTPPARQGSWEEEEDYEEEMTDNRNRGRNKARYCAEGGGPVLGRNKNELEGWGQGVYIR
UniProt O95180: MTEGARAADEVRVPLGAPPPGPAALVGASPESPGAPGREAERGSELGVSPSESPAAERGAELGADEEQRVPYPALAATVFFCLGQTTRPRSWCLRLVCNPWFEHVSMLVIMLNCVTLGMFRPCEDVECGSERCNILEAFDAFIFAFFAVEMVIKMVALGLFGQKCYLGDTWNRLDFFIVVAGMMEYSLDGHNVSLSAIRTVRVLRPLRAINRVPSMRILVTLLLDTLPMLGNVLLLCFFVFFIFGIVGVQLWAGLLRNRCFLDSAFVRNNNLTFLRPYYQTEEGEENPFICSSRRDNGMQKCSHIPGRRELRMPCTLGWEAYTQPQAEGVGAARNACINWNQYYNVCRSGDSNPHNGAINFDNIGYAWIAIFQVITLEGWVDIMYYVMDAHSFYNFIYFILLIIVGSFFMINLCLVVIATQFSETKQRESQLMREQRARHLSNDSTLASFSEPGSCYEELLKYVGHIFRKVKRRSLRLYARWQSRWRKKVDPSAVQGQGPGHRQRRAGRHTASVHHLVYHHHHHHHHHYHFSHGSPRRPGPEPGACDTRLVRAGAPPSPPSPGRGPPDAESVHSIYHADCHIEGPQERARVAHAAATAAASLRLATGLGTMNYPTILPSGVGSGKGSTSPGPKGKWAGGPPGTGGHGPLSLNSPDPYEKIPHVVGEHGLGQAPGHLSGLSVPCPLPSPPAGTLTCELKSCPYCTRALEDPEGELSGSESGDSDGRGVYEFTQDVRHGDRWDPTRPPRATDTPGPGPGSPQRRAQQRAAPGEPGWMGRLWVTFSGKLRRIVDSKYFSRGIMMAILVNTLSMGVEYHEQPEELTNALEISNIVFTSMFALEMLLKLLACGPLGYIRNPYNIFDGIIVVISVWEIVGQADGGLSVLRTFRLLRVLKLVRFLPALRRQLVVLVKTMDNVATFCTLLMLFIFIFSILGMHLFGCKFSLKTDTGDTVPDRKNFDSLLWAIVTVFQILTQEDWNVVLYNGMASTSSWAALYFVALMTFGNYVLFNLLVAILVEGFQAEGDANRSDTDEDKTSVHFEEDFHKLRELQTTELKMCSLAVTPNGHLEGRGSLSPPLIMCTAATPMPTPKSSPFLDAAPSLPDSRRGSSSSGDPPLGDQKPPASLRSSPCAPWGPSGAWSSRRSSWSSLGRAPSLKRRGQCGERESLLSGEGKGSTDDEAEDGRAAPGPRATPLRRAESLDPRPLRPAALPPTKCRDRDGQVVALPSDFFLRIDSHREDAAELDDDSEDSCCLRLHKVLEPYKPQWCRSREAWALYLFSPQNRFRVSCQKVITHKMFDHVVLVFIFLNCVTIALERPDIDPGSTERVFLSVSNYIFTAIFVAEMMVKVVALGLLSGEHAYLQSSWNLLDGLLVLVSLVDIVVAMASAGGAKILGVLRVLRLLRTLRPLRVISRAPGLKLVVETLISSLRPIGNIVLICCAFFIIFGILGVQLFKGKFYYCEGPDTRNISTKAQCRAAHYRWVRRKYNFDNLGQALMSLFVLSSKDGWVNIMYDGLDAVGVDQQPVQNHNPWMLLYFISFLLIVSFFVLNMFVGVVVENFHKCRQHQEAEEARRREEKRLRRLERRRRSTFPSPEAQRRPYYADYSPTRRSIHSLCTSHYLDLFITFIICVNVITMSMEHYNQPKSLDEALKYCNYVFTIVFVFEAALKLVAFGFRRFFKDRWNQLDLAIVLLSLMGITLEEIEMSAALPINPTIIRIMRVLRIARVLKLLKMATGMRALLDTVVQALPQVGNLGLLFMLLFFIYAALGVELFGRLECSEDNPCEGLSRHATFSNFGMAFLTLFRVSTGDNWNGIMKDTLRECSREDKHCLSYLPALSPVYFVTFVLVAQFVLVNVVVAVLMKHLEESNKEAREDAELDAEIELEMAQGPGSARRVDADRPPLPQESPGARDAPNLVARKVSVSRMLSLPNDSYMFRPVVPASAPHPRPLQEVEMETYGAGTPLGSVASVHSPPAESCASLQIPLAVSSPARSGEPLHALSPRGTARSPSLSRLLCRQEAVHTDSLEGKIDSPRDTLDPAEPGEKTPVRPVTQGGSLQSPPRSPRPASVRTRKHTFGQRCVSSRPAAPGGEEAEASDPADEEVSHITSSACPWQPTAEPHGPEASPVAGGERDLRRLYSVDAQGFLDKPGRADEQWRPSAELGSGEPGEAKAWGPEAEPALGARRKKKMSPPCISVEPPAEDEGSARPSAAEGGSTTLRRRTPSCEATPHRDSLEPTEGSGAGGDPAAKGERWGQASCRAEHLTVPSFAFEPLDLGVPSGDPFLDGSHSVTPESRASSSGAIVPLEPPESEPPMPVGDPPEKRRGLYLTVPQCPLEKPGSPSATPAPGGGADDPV
UniProt O43497: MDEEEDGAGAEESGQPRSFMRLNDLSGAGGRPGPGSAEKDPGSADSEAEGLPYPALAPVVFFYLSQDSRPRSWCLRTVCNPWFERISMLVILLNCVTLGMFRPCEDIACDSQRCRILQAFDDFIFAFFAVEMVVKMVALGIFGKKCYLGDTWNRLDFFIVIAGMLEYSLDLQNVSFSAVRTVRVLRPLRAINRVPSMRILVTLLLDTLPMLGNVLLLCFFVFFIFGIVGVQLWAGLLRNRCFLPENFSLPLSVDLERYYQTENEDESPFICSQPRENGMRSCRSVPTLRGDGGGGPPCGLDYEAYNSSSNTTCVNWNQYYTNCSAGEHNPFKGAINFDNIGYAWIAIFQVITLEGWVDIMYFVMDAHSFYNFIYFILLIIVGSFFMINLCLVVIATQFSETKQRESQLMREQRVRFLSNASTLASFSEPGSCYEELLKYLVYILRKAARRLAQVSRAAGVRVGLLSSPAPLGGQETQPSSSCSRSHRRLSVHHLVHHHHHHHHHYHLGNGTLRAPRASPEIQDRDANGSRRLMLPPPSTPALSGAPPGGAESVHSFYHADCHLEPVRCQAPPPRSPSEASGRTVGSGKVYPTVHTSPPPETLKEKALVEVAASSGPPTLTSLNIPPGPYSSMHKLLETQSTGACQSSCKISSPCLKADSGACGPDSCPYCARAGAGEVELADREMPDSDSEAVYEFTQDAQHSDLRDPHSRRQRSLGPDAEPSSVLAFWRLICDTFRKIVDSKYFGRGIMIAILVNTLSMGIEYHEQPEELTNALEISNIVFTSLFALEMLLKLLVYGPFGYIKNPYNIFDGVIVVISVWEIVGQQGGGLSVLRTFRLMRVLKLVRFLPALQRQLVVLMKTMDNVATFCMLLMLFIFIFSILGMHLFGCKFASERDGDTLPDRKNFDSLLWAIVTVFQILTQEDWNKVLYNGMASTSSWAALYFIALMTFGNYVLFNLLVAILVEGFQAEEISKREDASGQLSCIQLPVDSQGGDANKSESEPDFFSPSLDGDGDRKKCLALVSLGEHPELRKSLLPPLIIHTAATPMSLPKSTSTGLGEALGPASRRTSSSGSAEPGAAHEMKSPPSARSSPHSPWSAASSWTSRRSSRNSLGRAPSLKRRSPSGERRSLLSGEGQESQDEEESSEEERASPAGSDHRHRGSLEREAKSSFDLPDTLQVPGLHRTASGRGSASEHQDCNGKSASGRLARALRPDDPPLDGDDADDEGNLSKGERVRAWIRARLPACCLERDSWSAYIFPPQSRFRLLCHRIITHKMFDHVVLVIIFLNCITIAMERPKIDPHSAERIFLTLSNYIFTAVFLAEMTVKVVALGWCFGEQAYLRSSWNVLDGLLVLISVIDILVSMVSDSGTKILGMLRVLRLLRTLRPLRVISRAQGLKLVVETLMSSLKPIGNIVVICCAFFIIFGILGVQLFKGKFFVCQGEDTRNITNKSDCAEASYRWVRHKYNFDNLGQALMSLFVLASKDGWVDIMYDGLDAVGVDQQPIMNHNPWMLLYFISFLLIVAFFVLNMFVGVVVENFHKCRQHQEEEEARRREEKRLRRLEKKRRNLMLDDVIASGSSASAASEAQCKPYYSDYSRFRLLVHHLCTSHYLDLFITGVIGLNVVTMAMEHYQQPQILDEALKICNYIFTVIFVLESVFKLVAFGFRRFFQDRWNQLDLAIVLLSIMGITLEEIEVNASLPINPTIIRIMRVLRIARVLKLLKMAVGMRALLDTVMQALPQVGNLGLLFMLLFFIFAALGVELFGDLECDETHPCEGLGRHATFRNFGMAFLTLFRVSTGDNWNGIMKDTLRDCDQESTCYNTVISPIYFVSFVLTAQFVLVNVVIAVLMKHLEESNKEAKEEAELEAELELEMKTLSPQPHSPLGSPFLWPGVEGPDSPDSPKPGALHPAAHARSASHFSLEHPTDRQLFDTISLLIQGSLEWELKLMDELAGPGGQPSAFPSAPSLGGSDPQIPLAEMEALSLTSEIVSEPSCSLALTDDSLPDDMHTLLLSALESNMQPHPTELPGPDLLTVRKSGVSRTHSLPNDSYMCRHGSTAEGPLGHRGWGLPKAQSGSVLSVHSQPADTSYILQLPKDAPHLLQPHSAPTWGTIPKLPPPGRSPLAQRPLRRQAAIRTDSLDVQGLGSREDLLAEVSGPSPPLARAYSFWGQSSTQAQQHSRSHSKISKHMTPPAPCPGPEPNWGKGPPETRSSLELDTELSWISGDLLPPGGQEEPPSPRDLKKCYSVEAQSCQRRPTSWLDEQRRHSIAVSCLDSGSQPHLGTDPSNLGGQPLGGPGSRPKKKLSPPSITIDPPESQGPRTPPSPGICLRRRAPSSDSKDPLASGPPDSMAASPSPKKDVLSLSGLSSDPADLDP

How the values were obtained:
[1] = biological target: β1b-BFP (CaVβ1b subunit, N-terminally tagged with BFP) (UniProt P54283); assay: FRET or BRET; sensitized emission FRET by confocal microscopy in HEK-293 cells co-transfected with a GFP-tagged α1-subunit and BFP-β1b; FRET index calculated pixel by pixel
[2] = biological target: β1b-HA (CaVβ1b subunit tagged with HA) (UniProt P54283); assay: co-IP; 1 mg total protein extract (RIPA) of β1b-HA cells mixed with 1 mg extract of CaV1.2-GFP or CaV3.3-GFP cells, overnight at 4 °C with Anti-HA Affinity Matrix; beads rinsed three times with RIPA buffer; blot with anti-GFP

| Substance | binding [1] | binding [2] |
| --- | --- | --- |
| CaV3.2-GFP channel (α1-subunit of CaV3.2 cloned at the 3' end of GFP in pEGFP-C1) (from UniProt O95180 1-2353) | no binding |  |
| CaV1.2-GFP channel (α1-subunit of CaV1.2, N-terminally tagged with GFP) (from UniProt Q01815 1-2139) | binds | binds |
| CaV3.1-GFP channel (α1-subunit of CaV3.1 cloned at the 3' end of GFP in pEGFP-C1) (from UniProt O43497 1-2377) | no binding |  |
